{"sequences": {"note": "Chains of the proteins cited; added tags and fusions are not shown.", "UniProt Q93008": "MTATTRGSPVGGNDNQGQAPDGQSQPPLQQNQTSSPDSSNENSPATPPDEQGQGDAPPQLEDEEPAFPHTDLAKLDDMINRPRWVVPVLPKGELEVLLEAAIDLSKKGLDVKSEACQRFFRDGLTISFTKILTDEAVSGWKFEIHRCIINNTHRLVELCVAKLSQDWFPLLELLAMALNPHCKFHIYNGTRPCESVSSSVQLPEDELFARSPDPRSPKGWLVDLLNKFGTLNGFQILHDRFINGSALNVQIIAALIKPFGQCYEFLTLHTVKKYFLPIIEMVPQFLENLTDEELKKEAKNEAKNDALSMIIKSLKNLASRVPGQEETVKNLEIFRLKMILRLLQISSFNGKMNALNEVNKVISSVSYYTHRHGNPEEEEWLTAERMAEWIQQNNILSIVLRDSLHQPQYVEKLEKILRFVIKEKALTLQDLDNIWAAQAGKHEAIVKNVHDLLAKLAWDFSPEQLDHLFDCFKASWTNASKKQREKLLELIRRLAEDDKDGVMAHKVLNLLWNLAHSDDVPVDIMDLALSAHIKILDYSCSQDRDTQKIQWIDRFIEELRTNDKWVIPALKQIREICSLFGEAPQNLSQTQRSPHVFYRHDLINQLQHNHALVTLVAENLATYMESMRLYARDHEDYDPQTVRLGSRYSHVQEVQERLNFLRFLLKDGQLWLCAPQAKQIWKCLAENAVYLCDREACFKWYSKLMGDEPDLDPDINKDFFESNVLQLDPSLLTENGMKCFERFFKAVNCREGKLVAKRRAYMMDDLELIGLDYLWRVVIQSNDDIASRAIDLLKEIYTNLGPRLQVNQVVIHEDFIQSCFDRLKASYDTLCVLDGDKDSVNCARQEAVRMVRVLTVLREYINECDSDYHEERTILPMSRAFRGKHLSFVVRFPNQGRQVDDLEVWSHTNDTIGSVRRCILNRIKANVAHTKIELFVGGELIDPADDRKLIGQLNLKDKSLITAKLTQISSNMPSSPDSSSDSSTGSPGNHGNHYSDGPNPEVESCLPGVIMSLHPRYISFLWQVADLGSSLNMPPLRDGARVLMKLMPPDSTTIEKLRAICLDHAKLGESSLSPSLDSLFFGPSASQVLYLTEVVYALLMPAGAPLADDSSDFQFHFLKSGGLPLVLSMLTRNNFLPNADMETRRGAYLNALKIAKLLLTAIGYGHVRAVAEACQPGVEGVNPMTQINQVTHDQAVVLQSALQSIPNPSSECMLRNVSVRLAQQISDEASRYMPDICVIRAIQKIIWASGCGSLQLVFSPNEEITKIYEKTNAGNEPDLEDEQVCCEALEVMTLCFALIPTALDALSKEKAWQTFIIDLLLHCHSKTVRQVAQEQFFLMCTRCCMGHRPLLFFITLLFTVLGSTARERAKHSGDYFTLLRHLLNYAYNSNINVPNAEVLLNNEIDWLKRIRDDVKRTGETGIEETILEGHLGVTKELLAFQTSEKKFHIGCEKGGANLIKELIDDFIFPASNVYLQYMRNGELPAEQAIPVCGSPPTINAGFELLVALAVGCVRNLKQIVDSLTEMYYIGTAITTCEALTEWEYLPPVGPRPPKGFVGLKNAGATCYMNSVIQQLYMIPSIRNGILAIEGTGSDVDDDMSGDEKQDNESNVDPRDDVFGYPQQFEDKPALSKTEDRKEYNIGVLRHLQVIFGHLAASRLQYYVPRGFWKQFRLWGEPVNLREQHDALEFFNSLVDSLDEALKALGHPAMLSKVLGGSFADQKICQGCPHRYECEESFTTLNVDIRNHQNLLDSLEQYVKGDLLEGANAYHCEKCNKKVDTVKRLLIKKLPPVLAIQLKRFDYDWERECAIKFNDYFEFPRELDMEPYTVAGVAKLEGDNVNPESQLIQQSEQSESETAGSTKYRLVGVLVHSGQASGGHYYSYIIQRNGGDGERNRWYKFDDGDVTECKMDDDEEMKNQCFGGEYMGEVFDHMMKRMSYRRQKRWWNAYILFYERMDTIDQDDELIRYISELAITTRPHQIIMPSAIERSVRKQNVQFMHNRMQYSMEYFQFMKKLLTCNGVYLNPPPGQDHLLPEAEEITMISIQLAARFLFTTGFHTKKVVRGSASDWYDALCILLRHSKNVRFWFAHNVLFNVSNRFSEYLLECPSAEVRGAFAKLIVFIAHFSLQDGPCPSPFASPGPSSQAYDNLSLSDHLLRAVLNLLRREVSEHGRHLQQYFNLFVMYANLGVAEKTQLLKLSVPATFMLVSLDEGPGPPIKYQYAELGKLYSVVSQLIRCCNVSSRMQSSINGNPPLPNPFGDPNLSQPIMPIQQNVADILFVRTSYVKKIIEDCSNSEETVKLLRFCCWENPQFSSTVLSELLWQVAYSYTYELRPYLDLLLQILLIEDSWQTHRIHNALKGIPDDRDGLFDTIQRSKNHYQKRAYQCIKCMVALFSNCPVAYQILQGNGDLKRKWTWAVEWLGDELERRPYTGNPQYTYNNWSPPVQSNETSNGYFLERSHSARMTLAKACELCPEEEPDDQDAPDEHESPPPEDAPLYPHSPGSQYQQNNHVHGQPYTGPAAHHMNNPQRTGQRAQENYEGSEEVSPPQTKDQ"}, "source": "patent US20210205286A1", "binders": {"B1": {"name": "FLAG-TAK1 (enzyme, UniProt O43318 1-606, looked up, not shown: small tags and cut ends)", "chain": "MSTASAASSSSSSSAGEMIEAPSQVLNFEEIDYKEIEVEEVVGRGAFGVVCKAKWRAKDVAIKQIESESERKAFIVELRQLSRVNHPNIVKLYGACLNPVCLVMEYAEGGSLYNVLHGAEPLPYYTAAHAMSWCLQCSQGVAYLHSMQPKALIHRDLKPPNLLLVAGGTVLKICDFGTACDIQTHMTNNKGSAAWMAPEVFEGSNYSEKCDVFSWGIILWEVITRRKPFDEIGGPAFRIMWAVHNGTRPPLIKNLPKPIESLMTRCWSKDPSQRPSMEEIVKIMTHLMRYFPGADEPLQYPCQYSDEGQSNSATSTGSFMDIASTNTSNKSDTNMEQVPATNDTIKRLESKLLKNQAKQQSESGRLSLGASRGSSVESLPPTSEGKRMSADMSEIEARIAATTAYSKPKRGHRKTASFGNILDVPEIVISGNGQPRRRSIQDLTVTGTEPGQVSSRSSSPSVRMITTSGPTSEKPTRSHPWTPDDSTDTNGSDNSIPMAYLTLDHQLQPLAPCPNSKESMAVFEQHCKMAQEYMKVQTEIALLLQRKQELVAELDQDEKDQQNTSRLVQEHKKLLDENKSLSTYYQQCKKQLEVIRSQQQKRQGTS"}}, "biological_target": "USP9X (endogenous) (UniProt Q93008)", "assay": "co-IP, anti-FLAG IP, blot with anti-USP9X (FIG. 4D)", "note": "No constants are given. Whether binding was seen depends on the method and setting. In cells and extracts the contact can be indirect. Some binding calls cover weakened binding; strength is not graded here. Tags and fused reporters may be left off the sequences shown."}
{"binder": "B1", "values": [{"measurement": "binding", "result": "binds"}]}
